Data taken from publication PMC9916724.

Target: integrin αvβ5 (human (endogenous in cultured human podocytes))
Experiment: co-IP; human podocytes lysed in IP lysis buffer; immunoprecipitation with anti-GRP78 or anti-αvβ5 overnight at 4 °C, protein G-Sepharose beads 1 h at 4 °C; immunoblot with anti-ISM; basal conditions; negative control with unspecific antibody

binding: binds
B1: Isthmin-1 (ISM1) (protein, UniProt B1AKI9 30-464)
chain: ADGPDAAAGNASQAQLQNNLNVGSDTTSETSFSLSKEAPREHLDHQAAHQPFPRPRFRQETGHPSLQRDFPRSFLLDLPNFPDLSKADINGQNPNIQVTIEVVDGPDSEADKDQHPENKPSWSVPSPDWRAWWQRSLSLARANSGDQDYKYDSTSDDSNFLNPPRGWDHTAPGHRTFETKDQPEYDSTDGEGDWSLWSVCSVTCGNGNQKRTRSCGYACTATESRTCDRPNCPGIEDTFRTAATEVSLLAGSEEFNATKLFEVDTDSCERWMSCKSEFLKKYMHKVMNDLPSCPCSYPTEVAYSTADIFDRIKRKDFRWKDASGPKEKLEIYKPTARYCIRSMLSLESTTLAAQHCCYGDNMQLITRGKGAGTPNLISTEFSAELHYKVDVLPWIICKGDWSRYNEARPPNNGQKCTESPSDEDYIKQFQEAREY

Results are given in words; binding and its absence hold for the method and conditions named. Binding seen in cells or lysates may run through a third protein. Binding can be weak; no strength is given.
